Results: PubChem BioAssay AID2685 (National Center for Advancing Translational Sciences (NCATS), 2010)
This is one part of the list. Further columns of the screen follow, without active or inactive calls. The list favours compounds with an active or inconclusive main result. Potencies come from curve fits of mixed quality, noted in brackets.

Experiment: qHTS Assay for Lipid Storage Modulators in Drosophila S3 Cells;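 on cell number change: cells counted by Cell Tracker Red CMTPX staining in the red channel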
Conditions: BODIPY lipid droplet fluorescence, 18-24 h; for cell number change: measured here: cell count max response, cells fed with added oleic acid
How it was run: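 Laser-scanning cytometry quantifies lipid droplet accumulation (500–530 nm total intensity; droplet/cell object ratio) in oleic acid-fed (400 uM added) Drosophila S3 cells treated with a concentration series. 20 uM Triacsin C defined 100% inhibition.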

[1] = measured here: lipid fluorescence (Fed channel) AC50, cells fed with added oleic acid
[2] = measured here: cell number channel AC50, cells fed with added oleic acid

In the case of `O=C(Nc1ccc(F)cc1)c1cc(S(=O)(=O)N2CCOCC2)cs1`, the cell number change is reported as -8.42% and the AC50 [1] is reported as 29100 nM [falling, single point].
With `O=C(c1ccc(N2CCOCC2)cc1[N+](=O)[O-])N1CCOCC1` the cell number change was 14% and the AC50 [1] was 2060 nM [rising, partial curve, poor fit].
In the case of `COc1ccc(-c2nc3n(n2)C(=O)CC(c2ccco2)S3)cc1` (stereo not drawn), the cell number change is reported as -24.5% and the AC50 [1] is reported as 29100 nM [falling, single point].
In the case of `COc1ccc2oc(=O)cc(CN(C)Cc3ccccc3)c2c1`, the cell number change is reported as -1.23% and the AC50 [1] is reported as 18400 nM [falling, single point].
In the case of `Cc1ccc(S(=O)(=O)n2nc(OC(=O)C(C)(C)C)cc2N)cc1`, the cell number change is reported as 3% and the AC50 [1] is reported as 4110 nM [falling, full curve, poor fit].
With `c1ccc(N2CCN(Cc3nnnn3C3CCCCC3)CC2)cc1` the cell number change was -2.93% and the AC50 [1] was 5.17 nM [rising, full curve, poor fit].
For `O=C(Nc1ccncc1)c1ccccc1[N+](=O)[O-]`, the cell number change was 8.5% and the AC50 [1] was 6510 nM [falling, single point].
In the case of `CCOc1ccccc1Nc1nc2ccccc2[nH]1`, the AC50 [2] is reported as 3260 nM [falling, partial curve].
`O=C(O)C1C2C=CC3(CN(C/C=C/c4ccccc4)C(=O)C13)O2` (stereo not drawn) showed a cell number change of 13.9%.
For `CCCc1c(C(=O)N/N=C/c2ccncc2)nnn1-c1nonc1N`, the AC50 [2] was 731 nM [rising, single point].
With `COc1ccc(N2C(=O)C(=O)/C(=C(/O)c3ccc(C)cc3)C2c2cccnc2)cc1` (stereo not drawn) the cell number change was 34.7% and the AC50 [2] was 29100 nM [rising, single point].
With `FC(F)(F)c1ccccc1-n1ccnc1` the cell number change was 4.03% and the AC50 [1] was 580 nM [rising, single point].
In the case of `CCCCNCc1nc2ccccc2c(=O)[nH]1`, the AC50 [2] is reported as 231 nM [rising, full curve, poor fit].
With `Cc1cc2nc(-c3ccc(SCC(=O)Nc4nccs4)nc3)[nH]c2cc1C` the cell number change was -1.71%, the AC50 [2] was 820 nM [rising, partial curve, poor fit] and the AC50 [1] was 3660 nM [rising, single point].
In the case of `COc1ccc(CCN2C(=O)C3C4CCC(C4=C(C)C)C3C2=O)cc1OC` (stereo not drawn), the cell number change is reported as 11.8% and the AC50 [1] is reported as 29100 nM [rising, single point].
For `COC(=O)c1ccc(OCC(O)CN(CC(C)C)CC(C)C)cc1` (stereo not drawn), the cell number change was -13.2% and the AC50 [1] was 4610 nM [rising, single point].
In the case of `Cc1ccc(C)c(NC(=O)CN(C)C(=O)Cn2c(=O)oc3ccccc32)c1`, the cell number change is reported as 7.86% and the AC50 [1] is reported as 116 nM [rising, full curve, poor fit].
With `Cc1cc(NC(=O)c2c(Cl)c(C)nn2C)no1` the cell number change was -19%.
In the case of `Cc1ccc(NC(=O)c2cccc(S(=O)(=O)N3CCCC3)c2)nc1`, the AC50 [1] is reported as 5800 nM [rising, single point].
In the case of `O=C(O)c1ccc(S(=O)(=O)c2ccc3c(c2)C(=O)N(NC(=O)c2ccncc2)C3=O)cc1`, the cell number change is reported as 23.3% and the AC50 [1] is reported as 29100 nM [rising, single point].
With `CSCC[C@H](NC(=O)OC(C)(C)C)c1nnc(SCC(=O)Nc2ccc(C)cc2C)o1` the cell number change was -13.4% and the AC50 [1] was 164 nM [rising, full curve, poor fit].
Compound `COC(=O)C1=C(C)N(Cc2ccccc2)C(=NCCCCO)N[C@H]1c1cccc(C(F)(F)F)c1` has a cell number change of 11.4%.
In the case of `CCOC(=O)c1cc(NC(=O)SCC(=O)O)c(C)nc1C`, the AC50 [2] is reported as 1460 nM [rising, partial curve] and the AC50 [1] is reported as 1460 nM [rising, partial curve].
For `CCC(=O)Nc1ccc2c(c1)nc(CCN1CCC(C)CC1)n2C`, the cell number change was 65.8% and the AC50 [2] was 92 nM [rising, full curve, poor fit].
For `CCN(CC)C(=O)c1ccc2nc3ccccc3nc2c1`, the AC50 [2] was 3660 nM [rising, single point] and the AC50 [1] was 5.8 nM [rising, full curve, poor fit].
In the case of `O=C(NCc1nnc(SCC(=O)N2CCN(c3ccccc3)CC2)o1)c1c(F)cccc1F`, the AC50 [1] is reported as 7080 nM [falling, partial curve].
With `N#CCCN(C(=O)COC(=O)CCNS(=O)(=O)c1ccccc1)c1ccccc1` the cell number change was 13.5% and the AC50 [1] was 130 nM [rising, full curve, poor fit].
In the case of `CN(C)S(=O)(=O)c1ccc(N2CCCC2)c(C(=O)NC2CCC(O)CC2)c1` (stereo not drawn), the cell number change is reported as 44% and the AC50 [2] is reported as 16400 nM [rising, single point].
For `COCCN(CCOC)C(=O)c1c[nH]c2ccc(S(=O)(=O)N(C)c3ccc(F)cc3)cc2c1=O`, the cell number change was -17.1% and the AC50 [1] was 8200 nM [rising, partial curve, poor fit].
In the case of `O=C(Nc1cn(-c2ccccc2)nc1-c1ccc(Cl)cc1)c1ccccc1`, the cell number change is reported as 6.96%.
With `CC(C)(C)C(=O)/C(=C\c1cccc([N+](=O)[O-])c1)n1cncn1` the cell number change was -79.8%, the AC50 [2] was 7310 nM [falling, partial curve] and the AC50 [1] was 3260 nM [falling, full curve].
For `CCOC(=O)c1c(C)oc2c1cc(NS(=O)(=O)c1ccc(C(=O)O)cc1)c1ccccc12`, the AC50 [1] was 4.61 nM [rising, partial curve, poor fit].
In the case of `COC(=O)CC1C(=O)NCCN1C(=S)NC(=O)CCc1ccccc1` (stereo not drawn), the cell number change is reported as -4.23% and the AC50 [1] is reported as 100 nM [rising, full curve, poor fit].
For `COc1ccc2nc(SCC(C)=O)c(C#N)cc2c1`, the AC50 [1] was 731 nM [rising, full curve].
For `CCc1ccccc1NC(=O)C1=CC(c2ccc(OC)c(OC)c2)=NS(=O)(=O)N1C`, the cell number change was 8.36% and the AC50 [1] was 5.17 nM [rising, full curve, poor fit].
For `CCN1CCN(Cc2c(O)ccc3c2O/C(=C\C=C\c2ccccc2)C3=O)CC1`, the cell number change was -6.19% and the AC50 [1] was 184 nM [rising, full curve, poor fit].
In the case of `CCOc1ccc(CN(C)C(=O)CNC(=O)C2CCCCC2)cc1OC`, the cell number change is reported as 12.1% and the AC50 [1] is reported as 5.8 nM [rising, full curve, poor fit].
For `O=C(NCCc1ccccc1)c1nc(CS(=O)(=O)c2ccc(Cl)cc2)no1`, the cell number change was 2.42%.
With `O=C1c2ccccc2C(=O)N1c1ncc(Cc2ccc(Cl)cc2)s1` the cell number change was -1.11% and the AC50 [1] was 3260 nM [rising, single point].
